From paper PMC3307752
No constants are given. Whether binding was seen depends on the method and setting. In cells and extracts the contact can be indirect. Some binding calls cover weakened binding; strength is not graded here.

The chains behind the UniProt entries cited, without tags or fusion partners. Residues count along the entry.
UniProt P25108, residues 21-457: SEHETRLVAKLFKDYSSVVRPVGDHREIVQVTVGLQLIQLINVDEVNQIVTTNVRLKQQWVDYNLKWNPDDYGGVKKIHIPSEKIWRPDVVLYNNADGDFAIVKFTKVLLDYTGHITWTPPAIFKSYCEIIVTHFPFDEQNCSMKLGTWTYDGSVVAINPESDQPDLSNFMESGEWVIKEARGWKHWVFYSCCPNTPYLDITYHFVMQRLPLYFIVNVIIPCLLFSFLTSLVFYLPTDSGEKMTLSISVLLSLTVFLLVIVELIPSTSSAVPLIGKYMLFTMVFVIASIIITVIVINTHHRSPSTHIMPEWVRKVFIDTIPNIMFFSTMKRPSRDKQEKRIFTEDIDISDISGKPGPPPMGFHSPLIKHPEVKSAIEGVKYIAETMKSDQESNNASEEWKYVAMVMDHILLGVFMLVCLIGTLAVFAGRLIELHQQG
UniProt O08589, residues 21-92: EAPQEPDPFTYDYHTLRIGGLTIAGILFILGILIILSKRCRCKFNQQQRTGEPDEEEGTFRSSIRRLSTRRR

Target: nicotinic acetylcholine receptor α1 subunit (rat (endogenous in diaphragm muscle)) (UniProt P25108)
Experiment: co-IP; rat diaphragm muscle from sham (control) or oral nicotine treated (21-31 days) rats, solubilized in lysis buffer (137 mM NaCl, 2.7 mM KCl, 1 mM MgCl2, 20 mM Tris pH 8.0, 1% Triton X-100, 10% glycerol); IP with monoclonal antibody to the nAChRα1 subunit, protein G-agarose beads 1 h at room temperature; Western blot for Na,K-ATPase α1, α2 and PLM

Substance	binding
Na,K-ATPase α2 subunit (from UniProt P06686 1-1020) (enzyme)	binds
phospholemman (from UniProt O08589 21-92)	binds
